No constants are given. Whether binding was seen depends on the method and setting. Some entries that bind do so weakly or less than the wild type.
Biological target: YFP-RhoA·GTPγS (UniProt P61586)
Experiment: FRET or BRET; competition: non-fluorescent PH domain titrated into 1 μM YFP-RhoA·GTPγS + 1 μM CFP-PRG-PH; 20 mM NaHEPES pH 7.5, 1 mM EDTA, 1 mM DTT, 100 mM NaCl, 5 mM MgCl2; 25 °C; ratio 525/475 nm; both purified

By UniProt entry, the sequences of proteins in these tests, tags left out.
UniProt P61586: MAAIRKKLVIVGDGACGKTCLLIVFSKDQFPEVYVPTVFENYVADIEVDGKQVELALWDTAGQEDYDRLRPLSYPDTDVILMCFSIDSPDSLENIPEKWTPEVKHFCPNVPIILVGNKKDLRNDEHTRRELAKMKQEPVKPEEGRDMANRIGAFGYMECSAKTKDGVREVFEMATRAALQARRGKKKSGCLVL

binding: binds
B1: PH domain from p190RhoGEF (domain or fragment, UniProt Q8N1W1 1086-1188)
chain: TLLYDGLVYWKTATGRFKDILALLLTDVLLFLQEKDQKYIFAAVDQKPSVISLQKLIAREVANEERGMFLISASSAGPEMYEIHTNSKEERNNWMRRIQQAVE

— paper PMC5988292
